From patent US20230059690A1
No constants are given. Whether binding was seen depends on the method and setting. Some entries that bind do so weakly or less than the wild type.

Target: cynomolgus monkey PSMA (cynomolgus monkey)
Test: ELISA, Biacore and FACS

binding: binds
B1: cHv75-2a7.G1(C99Y;L328C)k (antibody, V domains shown)
VH: EVQLVESGGGLVQPGGSLRLSCAASGITFSNYWMSWVRQAPGKGLEWVANIKKDGSEKFYVDSVKGRFTISRDNAKNSLYLQINSLRAEDTAMYYCAREIQLYLQHWGQGTLVTVSS
VL: DIQMTQSPSSVSASVGGRVTITCRASQGISNWLAWYQQKPGKAPKLLIYAASSLQSGVPSRFSGSGSGTDFTLTISNLQPEDFASYYCQQANSFPLTFGGGTKVEIKR
